Data on 68 sequences can be found in PubChem BioAssay AID1508600 (Functional Genomics Laboratory (NCATS/FGL), 2020).

The whole screen tested about 53,000 sequences, of which about 3,700 (7%) were called active.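 The calls were made as follows: active = gene knockdowns whose robust z-score for IL-1 alpha signal is at least 2 or at most -2, so actives lie on both sides; inactive = the rest.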 Some of the results follow.

The assay in a line: Components of the Cytosolic LPS Sensing Pathway: Gene Identification via Genome-wide siRNA Screen.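 Also: robust z of the log signal after scaling to non-targeting control siRNA wells of the plate.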 Particulars: RAW264.7 macrophages, IL-1a HTRF, actives lie on both sides, screened at 100 nM (by protocol), cells primed 5 h with Pam3CSK4 first. In a few lines:
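RAW264.7; siRNA 100 nM final, RNAiMAX, 48h 37 degrees C; Pam3CSK4 5 h; LipidA + TransIT-TKO 24 h; IL-1a HTRF; CellTiter-Glo viability; robust z vs negative-control median.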
Background: In TR-FRET formats the signal depends on donor and acceptor labels being close together.
Consider GGACAUUCUUUAAGAAGAUTT against Tjp3, for which the z-score is inactive: -0.584. As for GGUGUGUUCCAUAUGACAATT against P2rx7, the z-score is inactive: 1.28. The value for CGAAUCUGGGAUUUAUCCATT against Tmem165 was inactive: -0.527; that for GGUAAAAAUAGCAACAGAATT against Cpxm2 was inactive: -1.14; that for GGACAAAGUGAAUUAUAGCTT against Tmem123 was inactive: 1.12. For GGAAAGCUUUAAAAAAUCCTT against Mlh1 the value was inactive: -0.734; for GCAUGGGCAUAACCGAAAGTT against Rex2, inactive: -0.332. With GGAUGAAGAAAACUGGCUUTT against Tsx, the z-score was inactive: -0.764. In the case of GGAUGCUCAGGAGAAGCUGTT against Tpm3, the z-score is inactive: -0.000785.

Regarding GGACCUCCACCGUUACUACTT against Sgsh, the z-score was inactive: 0.367. The value for GGCAAAUUUAGAUAAGUACTT against Cyp39a1 was inactive: 0.64; that for GGCAAUUUCCAAGCAGUUUTT against Wnt8b was inactive: -0.27. For GGAUCUAAGUUUGAUGUCGTT against Ugt2b1, the z-score was inactive: -1.7. Regarding GGAUCCCAGUUCUGGGUAATT against Dok1, the z-score was inactive: -0.0628.

With GGUGAAAGCAGAAAUGGAGTT against Dpysl5, the z-score was inactive: -0.63. As for CCAUUGAUCGUUUAGUCAATT against Trim33, the z-score was inactive: 0.836. For GGUGGGAUGCAGAUCUUUGTT against Ubc the value was inactive: 1.38.

For the sequence GGAAAAAAGAUGAAUUGCCTT against Cbx8, the z-score was inactive: 1.63.

CGUAUUAUCUGAGUGAACATT against Fth1: the z-score is inactive: -0.974.

In the case of GGCGGUUUCACCUAUACAATT against Rspo4, the z-score is inactive: 0.821. The value for GGCAGGUACAGAAACAGUUTT against Olfr432 was inactive: -1.9; that for GGUUGCAUUUCCAAAAACUTT against Gng10 was inactive: -0.611. The value for “CCCAUUCACUCAUCACAUGTT against F630003A18Rik” was inactive: -1.4. The value for GGGCAAUUUGUUCGACCCATT against Abca2 was inactive: -0.14. As to GGAGCUUGCCAUAUUCCUCTT against Leprotl1, the z-score is inactive: 0.915.

Take GGGAGUGGUUGUCUAUUCCTT against Nip7: the z-score was inactive: 0.00825. For GGAGAAAAUGAAGAAGGAATT against Taf5 the value was inactive: -1.99; for CCCAAAUUGAUCUCAGAGATT against Cdc42, inactive: -1.14; for GGAAGAUACGUGCAAAAUGTT against Rbms2, inactive: -0.562. For the sequence CGAAUAGUAGAAGAAACUCTT against Osgepl1, the z-score was inactive: 0.904. For CCACGCUACCUUCAAGAGATT against Clec14a the value was inactive: 0.946. In the case of GGCCAAGUUAGUUGAACCCTT against Dock11, the z-score is inactive: -0.335. For GGAAGAAACAACAAUGAUCTT against Calhm5 the value was inactive: 0.556; for GCAUUUCGCCUCUUUCAUATT against Elac1, inactive: -0.405. The value for CGGGCUACCAUUAUGGUGATT against Atp6ap2 was inactive: 0.382; that for GCAGGUUAUACGCUUAGAUTT against Irx5 was inactive: -0.0628; that for GGAUGACCAGACCUUGACGTT against Fgfrl1 was inactive: -1.12. For GGGCUUAAAACUUUUCAUATT against Cenpi the value was inactive: -0.971; for GGGUUUUCUUUGUUUUAGUTT against Trim8, inactive: 0.347; for GGCAAUUUCACGAUUUGCUTT against Eif2b4, inactive: -0.532. Take CCUACUUAGUGUCAGAAGATT against M1ap: the z-score is inactive: -0.115. The value for GGCAUGCUUGGCUUAUUUGTT against Kcnk4 was inactive: 0.0317.

Turning to GGUUGGAAACACAGCAAAATT against Cenpq, the z-score is inactive: -0.516. The value for “GGAUGUCCUACUAGUUAUUTT against 9130401M01Rik” was inactive: 1.35; that for GGAAGACAUUGUCUUGUUUTT against Mindy4 was inactive: 1.25. As to CCCUUUCGACAGAUUAGACTT against Zfp69, the z-score was inactive: -1.23. With GGUAUGAAUACCACUGGGCTT against Mob1a, the z-score was inactive: 0.598. For GCUGUGGAACUUAUGUUUUTT against Faxc the value was inactive: -0.518. Consider GUAGAAAACAUCUCACAAUTT against Krtap21-1, for which the z-score is inactive: 0.319. As for “CCGGACCUUAAAAAUGGGCTT against 4930465K10Rik”, the z-score was inactive: 0.921.

Consider GGAGAUUUUCCAGAGGCUGTT against Josd1, for which the z-score is active: -2.24.

Take GCCUUACUGACUCGUGUCCTT against Ccp110: the z-score was active: -2.33.

GGGAAAACUUGGGUAUUUCTT against Pgrmc1: the z-score was inactive: 1.64. Take CGAAGAUGCCAGUUAUGUUTT against Fndc11: the z-score is inactive: -0.254.

In the case of GGUUAUCCUCAUUGAUCCGTT against Rpl15, the z-score is inactive: 0.0822. On to CGAGGUGCUAAUCUGGCCUTT against Dctpp1, for which the z-score is inactive: 0.241. Regarding CCCUAUGGACUGAGUUUGUTT against Olfr183, the z-score is inactive: -0.036. The value for GGUAACUAACCUUAAUCUUTT against Slc16a1 was inactive: -0.178. For GCUAACGAAGGUAGUGUACTT against Gtpbp8 the value was active: 3.34; for CCUAUUUCCUUAUUUCCCGTT against Slc12a3, inactive: 0.531.

As to CGUGAACGUAGAGUUUUCUTT against Fcrl5, the z-score was active: 3.59. For GGGAUGUGAUAGUUCAUAATT against Stil the value was inactive: -0.304. The value for GGUUUCUACACAUUUAAGATT against Ptgdr2 was inactive: 1.57; that for GCUACAACAAGACAAAGUCTT against Tada1 was inactive: 1.84; that for GCACUUGUGCUUUCAAUAATT against Rhox1 was inactive: -1.49. For CCAGAAUGACGAUGCUGAATT against Ssrp1 the value was inactive: 0.294; for GGUUAUUCCACCUCUUGCCTT against Pacc1, inactive: -0.596. As to “GGAGACCACUAGCUUCAAUTT against B430306N03Rik”, the z-score was inactive: 1.48.
